Among all 320,000 compounds or so, about 22,000 (6.9%) were called active. This list was built around the results that the source calls inconclusive (neither active nor inactive); the mix of calls is not that of the screen. The call rests on the fitted dose curve; in most records, active means well fitted inhibition curve with a large enough effect; inconclusive means small, poorly fitted or top-dose-only effect, or another doubt; inactive means no such curve, though single readings can be large or run the other way. Where the call is inconclusive, the potency comes from a doubtful curve fit.
Test: Primary qHTS for delayed death inhibitors of the malarial parasite plastid, 96 hour incubation
Settings: P. falciparum luciferase reporter growth; series mostly up to 28.7 µM
Outline: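 Plates of compound plus infected erythrocytes (2% hematocrit, 0.05% parasitemia final) incubate 96 hours, 37 C, 5% CO2. Detection reagent added; reduced luminescence from the parasites' luciferase reporter flags inhibition.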
On the % scale 0 is the no-effect control and ±100 the full control effect; potency means the concentration at half of the fitted maximal effect.

Compound | Potency | activity change, negative = inhibition
N#Cc1c(Cl)cccc1N1CCCC1 | inactive | –
COc1ccc(C2C(C(C)=O)=C(C)Nc3ncnn32)cc1[N+](=O)[O-] (stereo not given) | active: 4.15 µM | –
Cn1c(SCC(=O)N2CCCC2)nnc1-c1ccc2c(c1)OCO2 | inactive | –
Cc1cccc(C)c1NC(=S)N(CCN(C)C)C(C)c1ccccn1 (stereo not given) | inconclusive: 14.7 µM [inhibitor, single point] | –
CCOC(=O)c1c(-c2ccccc2)oc2ccc(O)c(CN3CCN(C)CC3)c12 | active: 3.29 µM | –
COc1ccc(NC2=CC(c3ccc(F)cc3)N(c3ccc(OC)cc3)C2=O)cc1 (stereo not given) | inactive | –
Cc1onc(-c2ccccc2)c1C(=O)NCc1ccccc1F | inactive | –
Cc1cccc(NC(=O)C2CCCN(C(=O)Nc3ccc(F)cc3)C2)c1 (stereo not given) | inconclusive: 18.5 µM [inhibitor, single point] | –
CN(C(=O)c1cc(C(=O)N(C)c2ccccc2)cc([N+](=O)[O-])c1)c1ccccc1 | inconclusive: 18.5 µM [inhibitor, single point] | –
COc1ccccc1/C=C/C(=O)Nc1ccc(S(=O)(=O)Nc2cc(C)on2)cc1 | inconclusive: 10.4 µM [inhibitor, partial curve] | –
COc1ccc(-n2nc([N+](=O)[O-])c(=NCc3ccco3)n2O)cc1 | inactive | –
Cc1cc(=O)n2c3ccccc3n(CC(O)CN3CCN(Cc4ccccc4)CC3)c2c1C#N (stereo not given) | inconclusive: 1.31 µM [inhibitor, full curve] | –
CCN(c1ccccc1)S(=O)(=O)c1ccc(OC)c(NC(=O)Cc2ccc(OC)c(OC)c2)c1 | inconclusive: 16.5 µM [inhibitor, single point] | –
CCn1cc(C(=O)N[C@@H](C)C(=O)NCCCn2ccnc2)c(=O)c2cc3c(cc21)OCO3 | inconclusive: 18.5 µM [inhibitor, single point] | –
COc1cc(/C=N/NC(=O)c2ccc(COc3cc(C)ccc3C(C)C)cc2)cc(OC)c1O | inconclusive: 9.28 µM [inhibitor, partial curve, poor fit] | –
CCOC(=O)C1=C(O)C(=O)N(c2ccc(S(N)(=O)=O)cc2)C1c1ccc(OC)cc1OC (stereo not given) | – | inactive: 5.05% [at 5.75 µM]
CC(C)c1ccc(S(=O)(=O)N2CCC(C(=O)NCC3(N(C)C)CCCCC3)CC2)cc1 | inconclusive: 9.28 µM [inhibitor, partial curve, poor fit] | –
COc1ccc(CCN(Cc2cc3cccc(C)c3n3nnnc23)C(=O)c2ccncc2)cc1OC | inactive | –
Cc1ccc(S(=O)(=O)N2CCCCC2)c(C)c1NS(C)(=O)=O | inconclusive: 0.738 µM [inhibitor, partial curve, poor fit] | –
CN(CC(=O)Nc1ccccc1Cl)C(=O)Cn1cnc2ccc(Cl)cc2c1=O | inconclusive: 0.185 µM [inhibitor, full curve, poor fit] | –
O=C(COc1ccccc1Br)N1CCN(C(=O)c2ccco2)CC1 | inconclusive: 7.38 µM [inhibitor, partial curve] | –
Cc1cc(/C=C2\SC(=S)N(Cc3ccco3)C2=O)c(C)n1-c1cccnc1 | inconclusive: 13.1 µM [inhibitor, partial curve, poor fit] | –
Cc1ccc(O)c(N/C=C/C(=O)c2ccc(F)cc2)c1 | inconclusive: 18.5 µM [inhibitor, single point] | –
Cc1nc(C)c(C(=O)N/N=C/c2cc(Br)ccc2O)s1 | active: 5.22 µM | –

Compound | Potency | activity change, negative = inhibition
CC(C)NC(=S)NC(=O)/C=C/c1cccc2ccccc12 | inactive | –
COc1cc(/C=C(\C#N)C(=O)Nc2cccnc2)ccc1OC(C)C | inactive | –
Cc1ccc(/C=N/NC(=O)CCCOc2ccc(Cl)cc2Cl)cc1 | inconclusive: 10.4 µM [inhibitor, single point] | –
CC(C)c1ccc(/C=N/NC(=O)c2ccccn2)cc1 | inactive | –
Cc1c2c(c(C)n1C)C(C(=O)NC1CCCCC1)N(Cc1ccccc1)C2=O (stereo not given) | inconclusive: 8.28 µM [inhibitor, partial curve, poor fit] | –
O=C(CN1CCOCC1)NNc1c2ccccc2nc2ccccc12 | inconclusive: 18.5 µM [inhibitor, single point] | –
COCCOC(=O)c1[nH]c2c(c1C)C(=O)CC(c1ccc(F)cc1)C2 (stereo not given) | inconclusive: 13.1 µM [inhibitor, single point] | –
Cc1ccccc1NC(=O)c1cccc(NC(=O)c2ccco2)c1 | inconclusive: 18.5 µM [inhibitor, single point] | –
CCc1c(C)sc(NC(=O)C2CC2)c1C(=O)OC(C)C | inconclusive: 16.5 µM [inhibitor, single point] | –
CCNc1nc(Oc2ccc(=O)n(C)n2)nc(N2CCOCC2)n1 | inconclusive: 13.1 µM [inhibitor, single point] | –
Cc1ccc(S(=O)(=O)N(C)C)cc1NC(=S)NCc1ccco1 | inconclusive: 9.28 µM [inhibitor, single point] | –
O=S(=O)(c1ccccc1)[C@@]1(c2ccc(Br)cc2)C[C@@H]2ON=C(c3cccc(Br)c3)[C@@H]2C1 | inconclusive: 0.0147 µM [inhibitor, full curve, poor fit] | –
Cc1cccc(-c2cc(C(=O)Nc3ccc4c(c3)OCCO4)c3ccccc3n2)c1 | active: 11.7 µM | –
Cc1ccc(Cl)cc1N1CCN(S(=O)(=O)c2cccc(S(=O)(=O)N3CCCC3)c2)CC1 | inconclusive: 10.4 µM [inhibitor, single point] | –
O=C1CNC(=S)N1Cc1cccc(Cl)c1 | inactive | –
CCC(C)C(NC(N)=O)C(=O)Nc1ccc(OCc2ccccc2)cc1 (stereo not given) | inactive | –
COc1ccc(C(OCC(O)CNCCc2ccc(S(N)(=O)=O)cc2)c2ccc(OC)cc2)cc1 (stereo not given) | active: 11.7 µM | –
CCOc1ccccc1C1NC(=O)NC(C)=C1C(=O)OCc1ccco1 (stereo not given) | inconclusive: 18.5 µM [inhibitor, single point] | –
COc1ccc(NC(=O)CCS(=O)(=O)c2cccc3nonc23)c(OC)c1 | inconclusive: 16.5 µM [inhibitor, partial curve, poor fit] | –
CCc1nnc2n1N=C(c1ccccc1)CS2 | inactive | –
CC1(c2ccc(OC(F)F)cc2)NC(=O)N(CC(=O)NC2CCCCC2)C1=O (stereo not given) | inconclusive: 10.4 µM [inhibitor, single point] | –
O=C(CSc1nc2ccccc2c(=O)n1CCCO)NCc1ccccc1 | inactive | –
COC(=O)c1ccc(C2C(C(=O)Nc3ccc(C)cc3C)=C(C)Nc3ncnn32)cc1 (stereo not given) | inactive | –
Cc1nn(C)c(C)c1N=Cc1c(O)ccc2ccccc12 | active: 8.28 µM | –

Four compounds drawn at random from the list so far, as already listed:
Compound | Potency | activity change, negative = inhibition
Cc1ccc(/C=N/NC(=O)CCCOc2ccc(Cl)cc2Cl)cc1 | inconclusive: 10.4 µM [inhibitor, single point] | –
COc1ccc(C(OCC(O)CNCCc2ccc(S(N)(=O)=O)cc2)c2ccc(OC)cc2)cc1 (stereo not given) | active: 11.7 µM | –
Cc1ccc(S(=O)(=O)N(C)C)cc1NC(=S)NCc1ccco1 | inconclusive: 9.28 µM [inhibitor, single point] | –
CCNc1nc(Oc2ccc(=O)n(C)n2)nc(N2CCOCC2)n1 | inconclusive: 13.1 µM [inhibitor, single point] | –

Additional results

Compound | Potency | activity change, negative = inhibition
O=C(COc1ccccc1)NCc1n[nH]c(=S)n1-c1ccccc1 | inconclusive: 18.5 µM [inhibitor, single point] | –
Cc1ccc(-c2csc(NC(=O)CSc3nc(C)cc(=O)[nH]3)n2)cc1 | inconclusive: 18.5 µM [inhibitor, single point] | –
O=c1oc(-c2ccc([N+](=O)[O-])cc2)nc2ccccc12 | inconclusive: 18.5 µM [inhibitor, single point] | –
COc1ccc(-c2cc(C(=O)NN3CCOCC3)c3ccccc3n2)cc1OC | inconclusive: 18.5 µM [inhibitor, single point] | –
Cc1ccc(C)c(-c2cc(C(=O)NNC(=S)NCC(C)C)c3ccccc3n2)c1 | inconclusive: 18.5 µM [inhibitor, single point] | –
COCCNC(=O)/C(=C/c1ccccc1Cl)c1ccccc1 | inactive | –
CCOC(=O)c1sc(Nc2nc3cc4c(cc3s2)OCO4)cc1C | active: 9.28 µM | –
C#CCOCCOCCOCCNc1nc(N2CCN(C(=O)[C@H](C(C)C)n3cc(CCO)nn3)CC2)nc(N2CCN(C(=O)[C@H]([C@@H](C)CC)n3cc(CCCCN)nn3)CC2)n1 | inconclusive: 11.7 µM [inhibitor, single point] | –
COc1ccc(C(=O)NNC2=CC(=O)CC(C)(C)C2)cc1 | inconclusive: 11.7 µM [inhibitor, single point] | –
CC(C)Cn1c(N)c(C(=O)CSc2nnnn2C)c(=O)n(C)c1=O | inconclusive: 0.262 µM [inhibitor, full curve, poor fit] | –
CN(C)P(=S)(Nc1ccccc1)C(Cl)(Cl)Cl (stereo not given) | active: 8.28 µM | –
CC1(C)CC(=O)C2=C(C1)OC(N)=C(C#N)[C@@H]2c1ccccc1[N+](=O)[O-] | inconclusive: 2.33 µM [inhibitor, full curve] | –
O=C(c1ccc(F)cc1Cl)N1CCN(CCc2ccccc2)CC1 | active: 8.28 µM | –
COc1ccccc1Nc1nc(NCCO)nc(N)c1[N+](=O)[O-] | inconclusive: 4.65 µM [inhibitor, partial curve] | –
Cn1c(=O)c2c(ncn2CC(=O)N/N=C/C(Br)=C/c2ccccc2)n(C)c1=O | inactive | –
Cc1noc(NS(=O)(=O)c2ccc(N/C=C\C(=O)c3ccc4c(c3)OCO4)cc2)c1C | inconclusive: 0.185 µM [inhibitor, partial curve, poor fit] | –
Nc1nc(N)c(N=O)c(OCC2CCCCC2)n1 | inconclusive: 18.5 µM [inhibitor, single point] | –
O=C(NCCCN1CCCC1)c1ccc2c(c1)N(Cc1cccc(Cl)c1)C(=O)c1ccccc1S2=O (stereo not given) | inactive | –
COc1cccc(CC(=O)OCC(=O)NCCc2ccc(F)cc2)c1 | inactive | –
O=C(O)c1ccc(S(=O)(=O)NC2CC2)cc1 | inactive | –
O=C(CCOc1ccccc1)N1CCN(c2ccc(O)cc2)CC1 | inconclusive: 0.738 µM [inhibitor, partial curve, poor fit] | –
COCCCn1c2nc3ccccc3nc2c2c(=O)n(-c3ccccc3OC)c(C)nc21 | inactive | –
